Test results: patent US20250011423A1
Results are given in words; binding and its absence hold for the method and conditions named. Some entries that bind do so weakly or less than the wild type.

Amino acid sequences for entries named in this document (tags omitted). A change or cut given only in a name is not applied to a line headed by its entry.
UniProt Q86YW5: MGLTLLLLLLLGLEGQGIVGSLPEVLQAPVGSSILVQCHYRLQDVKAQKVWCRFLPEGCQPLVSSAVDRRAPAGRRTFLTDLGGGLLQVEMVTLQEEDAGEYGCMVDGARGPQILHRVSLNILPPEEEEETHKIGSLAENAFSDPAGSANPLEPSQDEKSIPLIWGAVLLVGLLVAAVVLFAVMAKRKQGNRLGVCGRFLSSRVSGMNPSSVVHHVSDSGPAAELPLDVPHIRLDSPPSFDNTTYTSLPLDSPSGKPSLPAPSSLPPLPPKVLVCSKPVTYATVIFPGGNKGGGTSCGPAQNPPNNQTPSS
UniProt Q8K558: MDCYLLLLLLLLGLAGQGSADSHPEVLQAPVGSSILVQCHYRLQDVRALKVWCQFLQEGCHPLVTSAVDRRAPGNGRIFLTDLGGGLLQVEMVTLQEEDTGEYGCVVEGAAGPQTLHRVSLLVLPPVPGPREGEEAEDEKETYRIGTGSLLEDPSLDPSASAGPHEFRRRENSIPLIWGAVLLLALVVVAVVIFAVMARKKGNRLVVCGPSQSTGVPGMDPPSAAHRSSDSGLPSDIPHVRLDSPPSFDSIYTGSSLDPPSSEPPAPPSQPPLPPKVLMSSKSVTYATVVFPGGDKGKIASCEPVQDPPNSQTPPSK

T1: human TREML1 ECD (human) (UniProt Q86YW5)
T1 sequence: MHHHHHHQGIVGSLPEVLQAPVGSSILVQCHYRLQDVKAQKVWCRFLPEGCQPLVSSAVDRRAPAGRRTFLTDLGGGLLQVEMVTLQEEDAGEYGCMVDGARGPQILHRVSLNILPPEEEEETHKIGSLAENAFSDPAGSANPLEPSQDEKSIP

T2: mouse TREML1 ECD (mouse) (UniProt Q8K558)
T2 sequence: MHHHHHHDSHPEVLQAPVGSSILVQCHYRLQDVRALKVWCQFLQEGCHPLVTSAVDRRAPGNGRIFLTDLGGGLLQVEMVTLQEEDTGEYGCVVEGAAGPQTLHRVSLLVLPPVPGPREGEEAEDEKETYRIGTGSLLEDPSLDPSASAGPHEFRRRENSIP


Assays:
[1] = target: T1, human TREML1 ECD (human); test: solid phase binding assay (FIG. 4)
[2] = target: T2, mouse TREML1 ECD (mouse); test: solid phase binding assay (FIG. 4)

| binding [1] | binding [2] | Binder |
| --- | --- | --- |
| binds | binds | Anti-TREML1 Antibody Clone 28A9 (antibody, V domains shown) VH: EVQLQQSGPELVKPGASVKMSCKASGYTFTNYVMHWVKQKPGQGLEWIGYFNPYNGHAKYSEKFTGKATLTSDRSSSTAYMELNSLTSEDSAVYYCTRDFNYYVGAMDYWGQGTSVTVSS VL: DVVMTQSPLSLPVNLGDHASISCRSSQSLIHSNGNTYLHWYLQKPGQSPKLLVYQVSKRFSGVPDRFSGSGSGTDFTLKISRVEAEDLGVYFCSQSTHIWTFGGGTTLEIK |
| binds | binds | Anti-TREML1 Antibody Clone 29F4 (antibody, V domains shown) VH: EVQLQQSGPELVRPGASVKVSCKASGYIFTDYVIHWVKQKPGQGLEWFGYINPYTGGPKYSETAKGKATLTSDSSSNTAYMVLTSLTSEDSAVYYCTRDFNYYVGAMDFWGQGTSVTVSS VL: GAVLTQTPLSLPVSLGDQASISCKSTQSLVHSNGNTYVHWYLQKAGQSPKLLIYKVSNRFSGVPDRFIGSGSGTDFTLKISRVEAEDLGVYFCSQSTYVWTFGGGTKLEIE |

The remaining lines, values behind:

| Binder | binding [1] | binding [2] |
| --- | --- | --- |
| Anti-TREML1 Antibody Clone 23F10 (antibody, V domains shown) VH: EVQLQQSGPELVRPGASVKVSCKASGYIFTDYVIHWVKQKPGQGLEWFGYINPYTGGPKYSETARGKATLTSDSSSNTAYMVLTSLTSDDSAVYYCTRDFNYYVGAMDFWGQGTSVTVSS VL: AAVLTQTPLSLPVSLGDQASISCRSTQSLVHSNGNTYVHWYLQKAGQSPKLLIYKVSNRFSGVPDRFSGSGSGTDFTLKISRVEAEDLGVYFCSQSTYVWTFGGGTKLEIE | binds | binds |
| Anti-TREML1 Antibody Clone 18D8 (antibody, V domains shown) VH: EVQVQQSGPELVNPGASVRLSCKASGYIFTDYVIHWVRQKPGQGLEWIGYMNPYTDGPKYSDKIKDKAILTSDRSSNTVYMELRSLTSEDSAVYFCARDFNYYVGAMDFWGQGTSVTVSS VL: DVVLTQTPLSLPVSLGDQASVSCRSSQSLLHSNGNTYLHWYLQKPGQSPKLLIYKVSNRFSGVPDRFTGSGSGTDFTLKISRVEAEDLGVYFCSQSTHIWTFGGGTKLEIK | binds | binds |
| Anti-TREML1 Antibody Clone 27D3 (antibody, V domains shown) VH: DVQLQQSGPELVKPGASVKMSCKASGYTFTEYVIHWVKQRPGQGLEWFGYFNPYTGGSKFNEKFKDKATLTSDRSSNTVYMELYSLTSEDSAVYYCARDFNYYVGAMDYWGQGTSVTVSS VL: DVALTQTPLSLPVSLGDQASISCRSSQSLVHSNGNTYLHWYLQKSGQSPKLLIYKVSNRFSGVPDRFSGSGSVTEFTLKISRVEAEDLGVYFCSQSSHIWTFGGGTRLEIK | binds | binds |
| Anti-TREML1 Antibody Clone 26A6 (antibody, V domains shown) VH: EVKLVESGGGLVQPGGSRKLSCAASGFTFSDYGMAWVRQAPGKGPEWIAFISNLAYRIYYADTVTGRFTISRENAKNTLYLEMSSLRSEDSAIYYCVREDYGNNGAMDYWGQGTSVTVSS VL: DVLMTQTPLSLPVSLGDQASISCRSSQSIVHSNGNTYLEWYLQKPGQSPKLLIYKVSNRFSGVPDRFSGSGSGTDFTLKISRVEAEDLGVYYCFQGSHVPPTFGGGTKLEIK | binds | binds |
